From patent US20020162794A1, “Anaerobic digestion” (priority 2001, published 2002)
Values joined by “and” are separate entries in the source; they are usually repeats but may differ in a detail not shown here. Equal entries are not always repeated.

System: mixed culture from a publicly owned anaerobic digester (domestic sewage sludge)
Assay: pH of laboratory batch anaerobic digester reactors

O=C[O-].[Na+] [sodium formate]
pH (1/4/99 run, 100 ppm, 0 Day): 5.3
pH (1/4/99 run, 100 ppm, 15 days): 5.22
pH (1/4/99 run, 100 ppm, 30 days): 5.54
pH (1/4/99 run, 1250 ppm, 0 Day): 5.54
pH (1/4/99 run, 1250 ppm, 15 days): 6.06
pH (1/4/99 run, 1250 ppm, 30 days): 7.1
pH (1/4/99 run, 2500 ppm, 0 Day): 5.69
pH (1/4/99 run, 2500 ppm, 15 days): 6.29
pH (1/4/99 run, 2500 ppm, 30 days): 7.2
pH (1/4/99 run, 3750 ppm, 0 Day): 5.65
pH (1/4/99 run, 3750 ppm, 15 days): 6.8
pH (1/4/99 run, 3750 ppm, 30 days): 6.86
pH (1/4/99 run, 5000 ppm, 0 Day): 5.63
pH (1/4/99 run, 5000 ppm, 15 days): 7.01
pH (1/4/99 run, 5000 ppm, 30 days): 7.06
pH (1/4/99 run, 6250 ppm, 0 Day): 5.47
pH (1/4/99 run, 6250 ppm, 15 days): 7.42
pH (1/4/99 run, 6250 ppm, 30 days): 7.49
pH (1/4/99 run, 7500 ppm, 0 Day): 5.54
pH (1/4/99 run, 7500 ppm, 15 days): 7.7
pH (1/4/99 run, 7500 ppm, 30 days): 7.67
pH (1/4/99 run, 8750 ppm, 0 Day): 5.52
pH (1/4/99 run, 8750 ppm, 15 days): 7.33
pH (1/4/99 run, 8750 ppm, 30 days): 7.8
pH (1/4/99 run, 10000 ppm, 0 Day): 5.44
pH (1/4/99 run, 10000 ppm, 15 days): 5.82
pH (1/4/99 run, 10000 ppm, 30 days): 8.06
pH, Average (1/4/99 run, average 25 ppm (reactors 0, 0, 0, 100 ppm), 0 Day): 5.22
pH, Average (1/4/99 run, average 25 ppm (reactors 0, 0, 0, 100 ppm), 15 days): 5.1325
pH, Average (1/4/99 run, average 25 ppm (reactors 0, 0, 0, 100 ppm), 30 days): 5.345
pH, Average (1/4/99 run, average 2500 ppm (1250, 2500, 3750 ppm), 0 Day): 5.627
pH, Average (1/4/99 run, average 2500 ppm (1250, 2500, 3750 ppm), 15 days): 6.383
pH, Average (1/4/99 run, average 2500 ppm (1250, 2500, 3750 ppm), 30 days): 7.053
pH, Average (1/4/99 run, average 6250 ppm (5000, 6250, 7500 ppm), 0 Day): 5.547
pH, Average (1/4/99 run, average 6250 ppm (5000, 6250, 7500 ppm), 15 days): 7.377
pH, Average (1/4/99 run, average 6250 ppm (5000, 6250, 7500 ppm), 30 days): 7.407
pH, Average (1/4/99 run, average 8750 ppm (7500, 8750, 10000 ppm), 0 Day): 5.5
pH, Average (1/4/99 run, average 8750 ppm (7500, 8750, 10000 ppm), 15 days): 6.95
pH, Average (1/4/99 run, average 8750 ppm (7500, 8750, 10000 ppm), 30 days): 7.843
pH (7/1/99 run (Tables 2, 10), 1000 ppm, 0 Day (with formate), listed as Format): 5.21 and 5.22 and 5.3
pH (7/1/99 run (Tables 2, 10), 1000 ppm, 0 Day (with formate), listed as Formate): 5.30 and 5.21 and 5.22
pH (7/1/99 run (Tables 2, 10), 1000 ppm, 5 Day, listed as Format): 4.47 and 4.53 and 4.43
pH (7/1/99 run (Tables 2, 10), 1000 ppm, 5 Day, listed as Formate): 4.43 and 4.47 and 4.53
pH (7/1/99 run (Tables 2, 10), 1000 ppm, 2 days, listed as Format): 4.77 and 4.82 and 4.72
pH (7/1/99 run (Tables 2, 10), 1000 ppm, 2 days, listed as Formate): 4.72 and 4.77 and 4.82
pH (7/1/99 run (Tables 2, 10), 1000 ppm, 3 days, listed as Format): 4.57 and 4.66 and 4.52
pH (7/1/99 run (Tables 2, 10), 1000 ppm, 3 days, listed as Formate): 4.52 and 4.57 and 4.66
pH (7/1/99 run (Tables 2, 10), 1000 ppm, 7 days, listed as Format): 4.26 and 4.27 and 4.2
pH (7/1/99 run (Tables 2, 10), 1000 ppm, 7 days, listed as Formate): 4.20 and 4.26 and 4.27
pH (7/1/99 run (Tables 2, 10), 1000 ppm, 9 days, listed as Format): 4.13 and 4.16 and 4.06
pH (7/1/99 run (Tables 2, 10), 1000 ppm, 9 days, listed as Formate): 4.06 and 4.13 and 4.16
pH (7/1/99 run (Tables 2, 10), 1000 ppm, 17 days, listed as Format): 3.88 and 3.71 and 3.83
pH (7/1/99 run (Tables 2, 10), 1000 ppm, 17 days, listed as Formate): 3.83 and 3.88 and 3.71
pH (7/1/99 run (Tables 2, 10), 1000 ppm, 25 days, listed as Format): 3.68 and 3.61 and 3.53
pH (7/1/99 run (Tables 2, 10), 1000 ppm, 25 days, listed as Formate): 3.53 and 3.68 and 3.61
pH (7/1/99 run (Tables 2, 10), 1000 ppm, 55 days, listed as Format): 3.76 and 3.61 and 3.59
pH (7/1/99 run (Tables 2, 10), 1000 ppm, 55 days, listed as Formate): 3.59 and 3.76 and 3.61
pH (7/1/99 run (Tables 2, 10), 5000 ppm, 0 Day (with formate)): 5.08
pH (7/1/99 run (Tables 2, 10), 5000 ppm, 5 Day): 4.76
pH (7/1/99 run (Tables 2, 10), 5000 ppm, 2 days): 5.08
pH (7/1/99 run (Tables 2, 10), 5000 ppm, 3 days): 4.85
pH (7/1/99 run (Tables 2, 10), 5000 ppm, 7 days): 4.5
pH (7/1/99 run (Tables 2, 10), 5000 ppm, 9 days): 4.37
pH (7/1/99 run (Tables 2, 10), 5000 ppm, 17 days, listed as Format): 4
pH (7/1/99 run (Tables 2, 10), 5000 ppm, 17 days, listed as Formate): 4.0
pH (7/1/99 run (Tables 2, 10), 5000 ppm, 25 days): 3.99
pH (7/1/99 run (Tables 2, 10), 5000 ppm, 55 days): 4.06
pH (7/1/99 run (Tables 2, 10), 10000 ppm, 0 Day (with formate), listed as Format): 6.42 and 6.29 and 6.5
pH (7/1/99 run (Tables 2, 10), 10000 ppm, 0 Day (with formate), listed as Formate): 6.50 and 6.42 and 6.29
pH (7/1/99 run (Tables 2, 10), 10000 ppm, 5 Day, listed as Format): 5.25 and 5.1 and 5.19
pH (7/1/99 run (Tables 2, 10), 10000 ppm, 5 Day, listed as Formate): 5.19 and 5.25 and 5.1
pH (7/1/99 run (Tables 2, 10), 10000 ppm, 2 days, listed as Format): 5.64 and 5.49 and 5.51
pH (7/1/99 run (Tables 2, 10), 10000 ppm, 2 days, listed as Formate): 5.51 and 5.64 and 5.49
pH (7/1/99 run (Tables 2, 10), 10000 ppm, 3 days, listed as Format): 5.28 and 5.1 and 5.18
pH (7/1/99 run (Tables 2, 10), 10000 ppm, 3 days, listed as Formate): 5.18 and 5.28 and 5.1
pH (7/1/99 run (Tables 2, 10), 10000 ppm, 7 days, listed as Format): 5.01 and 4.97 and 4.78
pH (7/1/99 run (Tables 2, 10), 10000 ppm, 7 days, listed as Formate): 4.78 and 5.01 and 4.97
pH (7/1/99 run (Tables 2, 10), 10000 ppm, 9 days, listed as Format): 4.67 and 4.69 and 4.48
pH (7/1/99 run (Tables 2, 10), 10000 ppm, 9 days, listed as Formate): 4.48 and 4.67 and 4.69
pH (7/1/99 run (Tables 2, 10), 10000 ppm, 17 days, listed as Format): 4.21 and 4.55
pH (7/1/99 run (Tables 2, 10), 10000 ppm, 17 days, listed as Formate): 4.21 and 4.55
pH (7/1/99 run (Tables 2, 10), 10000 ppm, 25 days, listed as Format): 4.17 and 4.19 and 4.13
pH (7/1/99 run (Tables 2, 10), 10000 ppm, 25 days, listed as Formate): 4.13 and 4.17 and 4.19
pH (7/1/99 run (Tables 2, 10), 10000 ppm, 55 days, listed as Format): 4.25 and 4.21
pH (7/1/99 run (Tables 2, 10), 10000 ppm, 55 days, listed as Formate): 4.21 and 4.25
pH (7/1/99 run (Tables 2, 10), 100000 ppm, 0 Day (with formate), listed as Format): 7.54 and 7.75
pH (7/1/99 run (Tables 2, 10), 100000 ppm, 0 Day (with formate), listed as Formate): 7.54 and 7.75
pH (7/1/99 run (Tables 2, 10), 100000 ppm, 5 Day, listed as Format): 7.34 and 7.5
pH (7/1/99 run (Tables 2, 10), 100000 ppm, 5 Day, listed as Formate): 7.34 and 7.5
pH (7/1/99 run (Tables 2, 10), 100000 ppm, 2 days, listed as Format): 7.34 and 7.54
pH (7/1/99 run (Tables 2, 10), 100000 ppm, 2 days, listed as Formate): 7.34 and 7.54
pH (7/1/99 run (Tables 2, 10), 100000 ppm, 3 days, listed as Format): 7.33 and 7.46
pH (7/1/99 run (Tables 2, 10), 100000 ppm, 3 days, listed as Formate): 7.33 and 7.46
pH (7/1/99 run (Tables 2, 10), 100000 ppm, 7 days, listed as Format): 7.25 and 7.42
pH (7/1/99 run (Tables 2, 10), 100000 ppm, 7 days, listed as Formate): 7.25 and 7.42
pH (7/1/99 run (Tables 2, 10), 100000 ppm, 9 days, listed as Format): 7.27 and 7.42
pH (7/1/99 run (Tables 2, 10), 100000 ppm, 9 days, listed as Formate): 7.27 and 7.42
pH (7/1/99 run (Tables 2, 10), 100000 ppm, 17 days, listed as Format): 6.3 and 6.87
pH (7/1/99 run (Tables 2, 10), 100000 ppm, 17 days, listed as Formate): 6.3 and 6.87
pH (7/1/99 run (Tables 2, 10), 100000 ppm, 25 days, listed as Format): 6.01 and 6.72
pH (7/1/99 run (Tables 2, 10), 100000 ppm, 25 days, listed as Formate): 6.01 and 6.72
pH (7/1/99 run (Tables 2, 10), 100000 ppm, 55 days, listed as Format): 5.97 and 6.73
pH (7/1/99 run (Tables 2, 10), 100000 ppm, 55 days, listed as Formate): 5.97 and 6.73
pH, Average (7/1/99 run, 1000 ppm, average of 3 reactors, 0 Day): 5.243
pH, Average (7/1/99 run, 1000 ppm, average of 3 reactors, 5 Day): 4.477
pH, Average (7/1/99 run, 1000 ppm, average of 3 reactors, 2 days): 4.77
pH, Average (7/1/99 run, 1000 ppm, average of 3 reactors, 3 days): 4.583
pH, Average (7/1/99 run, 1000 ppm, average of 3 reactors, 7 days): 4.243
pH, Average (7/1/99 run, 1000 ppm, average of 3 reactors, 9 days): 4.117
pH, Average (7/1/99 run, 1000 ppm, average of 3 reactors, 17 days): 3.807
pH, Average (7/1/99 run, 1000 ppm, average of 3 reactors, 25 days): 3.607
pH, Average (7/1/99 run, 1000 ppm, average of 3 reactors, 55 days): 3.653
pH, Average (7/1/99 run, 10000 ppm, average of 3 reactors, 0 Day): 6.403
pH, Average (7/1/99 run, 10000 ppm, average of 3 reactors, 5 Day): 5.18
pH, Average (7/1/99 run, 10000 ppm, average of 3 reactors, 2 days): 5.55
pH, Average (7/1/99 run, 10000 ppm, average of 3 reactors, 3 days): 5.187
pH, Average (7/1/99 run, 10000 ppm, average of 3 reactors, 7 days): 4.92
pH, Average (7/1/99 run, 10000 ppm, average of 3 reactors, 9 days): 4.613
pH, Average (7/1/99 run, 10000 ppm, average of 3 reactors, 17 days): 4.323
pH, Average (7/1/99 run, 10000 ppm, average of 3 reactors, 25 days): 4.163
pH, Average (7/1/99 run, 10000 ppm, average of 3 reactors, 55 days): 4.237
pH, Average (7/1/99 run, 100000 ppm, average of 2 reactors, 0 Day): 7.645
pH, Average (7/1/99 run, 100000 ppm, average of 2 reactors, 5 Day): 7.42
pH, Average (7/1/99 run, 100000 ppm, average of 2 reactors, 2 days): 7.44
pH, Average (7/1/99 run, 100000 ppm, average of 2 reactors, 3 days): 7.395
pH, Average (7/1/99 run, 100000 ppm, average of 2 reactors, 7 days): 7.335
pH, Average (7/1/99 run, 100000 ppm, average of 2 reactors, 9 days): 7.345
pH, Average (7/1/99 run, 100000 ppm, average of 2 reactors, 17 days): 6.585
pH, Average (7/1/99 run, 100000 ppm, average of 2 reactors, 25 days): 6.365
pH, Average (7/1/99 run, 100000 ppm, average of 2 reactors, 55 days): 6.35
pH of the mixed culture maintained at or near (spiked concentration levels exceeding 1000 ppm by mass): 6.8-7.4
